These results are taken from publication PMC7819943, “Rice protein-binding microarrays: a tool to detect cis-acting elements near promoter regions in rice”.

Amino acid sequences for entries named in this document (tags omitted).
UniProt Q0JBA9, entry or part of it: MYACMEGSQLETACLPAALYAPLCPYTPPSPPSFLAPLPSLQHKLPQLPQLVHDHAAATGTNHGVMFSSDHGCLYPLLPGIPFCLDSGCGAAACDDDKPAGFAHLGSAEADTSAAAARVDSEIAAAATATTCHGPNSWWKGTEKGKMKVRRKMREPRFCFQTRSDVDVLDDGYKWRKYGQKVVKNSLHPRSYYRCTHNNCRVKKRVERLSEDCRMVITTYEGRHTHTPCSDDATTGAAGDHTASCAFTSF

The list shows a part of the results.

The target of this assay is OsWRKY34 (Oryza sativa, UniProt Q0JBA9 1-250). The assay can be described thus: protein-binding microarray (RPBM); PBS, 2% BSA, 51.3 ng/ul salmon testes DNA, 50 uM zinc acetate, 200 nM TF, 25 C, 1 h; high values mean tight binding. The conditions noted are these: protein: recombinant; tags: N-terminal polyhistidine and DsRed monomer fusion (pET32a); label: CyDye5-dUTP incorporated in the synthesized complementary strand; 3' TTTTT single-stranded linker to array surface; dsDNA, one strand shown. In short, it runs like this:
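The binding signal is fluorescence intensity per array feature (arbitrary units). Readings came from an Axon 4000B scanner after a washed, 2% BSA-blocked, double-stranded custom Agilent array had been incubated for 1 h at 25 °C with 200 nM protein and 50 µM zinc acetate. The protein was a Ni–NTA-purified transcription factor fused N-terminally to polyhistidine and DsRed, expressed in E. coli BL21-CodonPlus.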
Consider “CATGCTGGCCTATGTGGGTCCCACCATTTTTAATTTTTTTCGGAGTCACCTAGTGCAG”, for which the binding signal was 8140 fluorescence intensity (a.u.).

For the sequence “TGTTCATATGCTATACTCCTGTAATTGTAATCCTCCATACCGGAGTCACCTAGTGCAG”, the binding signal was 9160 fluorescence intensity (a.u.).

Regarding “CACTAAACGGCCAAAATCTTCCATCGTATAGTTACGTCACCGGAGTCACCTAGTGCAG”, the binding signal is 8410 fluorescence intensity (a.u.).

With “AGATTGAAACTTATCTCCTTGTCGCCTCGTCATGGTGGGGCGGAGTCACCTAGTGCAG”, the binding signal is 8590 fluorescence intensity (a.u.).

Take “TAATCATACTATTGCACCAACCGTTGCTGCCCATTTGCATCGGAGTCACCTAGTGCAG”: the binding signal was 8310 fluorescence intensity (a.u.).

With “TCAGTGACCGGTTCTTTTTTCCCAATGTCTCACTCACGGTCGGAGTCACCTAGTGCAG”, the binding signal is 12100 fluorescence intensity (a.u.).

Regarding “CGGTTGCTCCTTTGCCTAATCACTCAATTCCAGTAACTTTCGGAGTCACCTAGTGCAG”, the binding signal was 8760 fluorescence intensity (a.u.).

On to “CTTCCGCCGCGCGCTTCCTTGCCACCGCATCTAGGCCGGCCGGAGTCACCTAGTGCAG”, for which the binding signal is 11400 fluorescence intensity (a.u.).

For the sequence “TCGACTCACTCAATCCAGTCGTCACCCCAGCTCACACGCACGGAGTCACCTAGTGCAG”, the binding signal is 8250 fluorescence intensity (a.u.).

Regarding “GTCCCTAACTCAACGTTATCCTGGTACGGCTACAGAGCGACGGAGTCACCTAGTGCAG”, the binding signal was 8390 fluorescence intensity (a.u.).

With “TCCTCCGCCGCCTCATGCCTCGCGCGCGCGCTCCCGCTCCCGGAGTCACCTAGTGCAG”, the binding signal is 9840 fluorescence intensity (a.u.).

Take “ACCCGAGCCCTGACTGCAATTTACTCCGACGTGACCACTGCGGAGTCACCTAGTGCAG”: the binding signal is 8220 fluorescence intensity (a.u.).

Regarding “GCTTCTTCCCTGTCCCCGGCGGCCGCCCGCGCCGCTTCTTCGGAGTCACCTAGTGCAG”, the binding signal was 8720 fluorescence intensity (a.u.).

Regarding “CATTCTGTTCGAACAAGATTCCGTCCTATAGCATTTTTCTCGGAGTCACCTAGTGCAG”, the binding signal was 10500 fluorescence intensity (a.u.).

As for “GCGTCGACCTCCGCCTCCGCGACCGGCCGTCACCTCGTCCCGGAGTCACCTAGTGCAG”, the binding signal was 9000 fluorescence intensity (a.u.).

For “ATTGCGCGCGAACAACATGATCCCCTAACCTTTGACCGTCCGGAGTCACCTAGTGCAG”, the binding signal is 8430 fluorescence intensity (a.u.).

Take “ACCCATTTAATTTTTTTCCTTTTTTCTTTTTTCTTTCTCTCGGAGTCACCTAGTGCAG”: the binding signal was 9300 fluorescence intensity (a.u.).

For “AACGCTTCTCTCTCTCTCTCGGTTAATTGCCTGTCTGCGTCGGAGTCACCTAGTGCAG”, the binding signal was 12900 fluorescence intensity (a.u.).

As for “GTTCAGTCACTCGCACGCTCGCTCGATCACCCGGCCGCCGCGGAGTCACCTAGTGCAG”, the binding signal was 10200 fluorescence intensity (a.u.).

For the sequence “CTTCCTAACGTTCATATCTCTGTGTTTTTAGTGTGTCATACGGAGTCACCTAGTGCAG”, the binding signal was 9860 fluorescence intensity (a.u.).

On to “GGTTGCGATGCCGGCCGGGATGGATGGAGGTCGGGGATGACGGAGTCACCTAGTGCAG”, for which the binding signal was 9600 fluorescence intensity (a.u.).

As for “ACGGTCGTGCTGCCCTCGAGTCAATTTCCATACACACGGCCGGAGTCACCTAGTGCAG”, the binding signal is 11500 fluorescence intensity (a.u.).

In the case of “TACCATTTGTCGTCCAGCCGAACCCTGCTAGTATGGACCTCGGAGTCACCTAGTGCAG”, the binding signal was 8750 fluorescence intensity (a.u.).

Regarding “CCCTCGCCACGGCCGTTCTTGTAGCCATCTTCTTCTTGCTCGGAGTCACCTAGTGCAG”, the binding signal is 10200 fluorescence intensity (a.u.).

Turning to “CCCCAATCCATCCCGTCTCCTCGCCCGGCGCCCTCGACTCCGGAGTCACCTAGTGCAG”, the binding signal was 8100 fluorescence intensity (a.u.).

For the sequence “CTTTGTACAATTCTGAAATTTTCCTTTGCCTTCATATGCGCGGAGTCACCTAGTGCAG”, the binding signal was 9310 fluorescence intensity (a.u.).

As for “ATATACTCTAGTCTCTACCTGCTCTTTCCCAATCACACTCCGGAGTCACCTAGTGCAG”, the binding signal is 10600 fluorescence intensity (a.u.).

In the case of “CCACAAAATCATCTCCCATTTGCAGTCCCATCTGCTTTCTCGGAGTCACCTAGTGCAG”, the binding signal was 10700 fluorescence intensity (a.u.).

As for “TATCCCGTACGCGCGCTCGATCATCAGCTTGCATAGTCACCGGAGTCACCTAGTGCAG”, the binding signal was 9660 fluorescence intensity (a.u.).

As for “AATTTCTTGTACTGTGTGAGCCATAGTAGTATAGCTTGATCGGAGTCACCTAGTGCAG”, the binding signal is 8370 fluorescence intensity (a.u.).

As for “TCGACCCTATCGTTTTATCCGCATCTTAGCGCTCTCTCTCCGGAGTCACCTAGTGCAG”, the binding signal was 9800 fluorescence intensity (a.u.).

With “CCGCTGGCCCTTGTTGACACCTTGACTACGAAATGTATTCCGGAGTCACCTAGTGCAG”, the binding signal is 8980 fluorescence intensity (a.u.).

Turning to “TTGCTTCTCTCCAGACTCTCTAGACTCCTCTGTTTGACGTCGGAGTCACCTAGTGCAG”, the binding signal was 8920 fluorescence intensity (a.u.).

Turning to “CCGTTGTGTTGGTCGTACCCTGCTTTGCATCTGCACACGTCGGAGTCACCTAGTGCAG”, the binding signal was 12100 fluorescence intensity (a.u.).

On to “TCTTTCTTGTCACAATATCTCCCTCTCATCCTTAGGTTTGCGGAGTCACCTAGTGCAG”, for which the binding signal was 8040 fluorescence intensity (a.u.).

With “GCCGAAATTGACATGTGACGCCCATAGTAAAGCCCACACGCGGAGTCACCTAGTGCAG”, the binding signal was 8980 fluorescence intensity (a.u.).

Take “CCCTCACCCTATGTTCCTGTGTTTTGTACTCTTTCGTAACCGGAGTCACCTAGTGCAG”: the binding signal was 16300 fluorescence intensity (a.u.).

For “CGTCCGTACGTCTGCGTCTGCAGCCTTCCGTTTCGTTTTCCGGAGTCACCTAGTGCAG”, the binding signal was 13100 fluorescence intensity (a.u.).

In the case of “TCCACCATTACACCACTTAACTCCTCTCCCTACACCACCACGGAGTCACCTAGTGCAG”, the binding signal was 8240 fluorescence intensity (a.u.).

Take “TCCGAGTTTTTTTTTTCGTTTTCCCTCTGAATTCCGCGGCCGGAGTCACCTAGTGCAG”: the binding signal is 8860 fluorescence intensity (a.u.).

In the case of “TATCTTATCAGGTCTCGTCTTCTTTAATCCAACCCTTGTTCGGAGTCACCTAGTGCAG”, the binding signal is 8680 fluorescence intensity (a.u.).

“CCGCCGCCGCCGCCGCCGCTAGCTCTCTCTTCTCTTCGCTCGGAGTCACCTAGTGCAG”: the binding signal is 9710 fluorescence intensity (a.u.).
